Results on 65 compounds are retold here after the supplement of paper PMC11150407.

The structures appear in SMILES notation. The whole screen tested about 3,000 compounds, of which about 45 (2%) showed an effect of 50% or more. The list shows a part of the results.

In the assay the test system is MOLM1 and UCSD/AML1 (averaged). As to the kind of experiment: cell viability relative to DMSO control (POC); higher = less growth inhibition. The note with it: 1 µM; 72 h. As to the method: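 Primary viability screen in the 3q26 EVI1-high AML cell lines MOLM1 and UCSD/AML1, compounds at 1 uM for 72 h. ATP CellTiter-Glo read-out given as percent viable over DMSO control (POC), averaged over duplicates. This mapping covers the TimTec NDL-3000 natural derivative library, whose compounds are identified by TimTec catalogue codes (ST...).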
For `CC(C)Cc1ccc(C(C)C(=O)NCCc2c[nH]c3ccccc23)cc1` (stereo not given), the cell viability was 88.1%.
For `O=C(c1nc(-c2ccccc2)n(-c2ccccc2)n1)N1CCc2ccccc2C1` the value was 99.2%; for `CC1(C)CC(=O)C2=C(C1)N(c1ccccc1)C1=C(C(=O)CC(C)(C)C1)C2c1ccc(O)cc1`, 106%.
Take `COc1cc(Cc2nccc3cc(OC)c(OC)cc23)c(/C(C)=N/O)cc1OC`: the cell viability stood at 96.7%.
For `CC1CCc2nc3sc(C(=O)N4CCC[C@H]4C(=O)O)c(N)c3cc2C1` (stereo not given in full) the value was 107%; for `COc1cc(CN(C)S(=O)(=O)c2cc(N3CCCC3=O)ccc2C)cc(OC)c1OC`, 89.8%.
For the compound `COc1cc(/C=N/NC(=O)CCC(=O)Nc2ccc(C)c(C)c2)cc(OC)c1OC`, the cell viability came out at 104%.
In the case of `COc1cccc(NC(=O)c2ccc3c(c2)OCO3)c1`, the cell viability is 81.2%.
As for `Cc1ccccc1-c1cc(=O)c2cc(Br)ccc2o1`, the figure is 106%; as for `COc1ccc(C2=NOC(=O)/C2=C\c2cccc([N+](=O)[O-])c2O)cc1OC`, 97.4%; as for `CCOC(=O)C(Cc1c[nH]c2ccccc12)NS(=O)(=O)c1ccc(C)cc1` (stereo not given), 91.9%.
Turning to `CCOC(=O)C1=C(N)Oc2c(oc(CO)cc2=O)C1c1ccc(Cl)cc1Cl` (stereo not given), the cell viability was determined as 107%.
Take `O=C(c1cc(=O)[nH]c2ccccc12)N1CCc2ccccc2C1`: the cell viability was 98.5%.
Regarding `Cc1ccc(NC(=O)CSc2nc3c(=O)[nH]cnc3n2-c2ccccc2)c(C)c1`, the cell viability was 99.2%.
Take `C=C(C)C1CCC(C)CC1OC(C)=O` (stereo not given): the cell viability stood at 96.6%.
With `COc1ccc(/C=C/C(=O)/C=C/c2ccc(OC)cc2OC)c(OC)c1`, the cell viability is 92%.
For `CC(=O)/C=C(\C)NC(C)C(=O)O` (stereo not given) the value was 102%.
In the case of `NC(=O)Cc1cc2ccccc2n1Cc1ccccc1`, the cell viability worked out at 97.6%.
Take `Cc1cc(=O)oc2cc(OCc3ccccc3F)ccc12`: the cell viability was determined as 98.2%.
For `CCOC(=O)c1c(C)n(CCOc2cccc(Cl)c2Cl)c2ccc(O)cc12` the value was 91.3%.
For the compound `CC(=O)C1=C(O)C(=O)N(CCc2c[nH]c3ccccc23)C1c1ccc(Cl)cc1` (stereo not given), the cell viability turned out to be 98.8%.
Turning to `O=c1oc2ccccc2cc1-c1ccccc1Cl`, the cell viability came to 110%.
With `COc1ccc(C=O)cc1CSc1nc2ccccc2[nH]1`, the cell viability was found to be 92.5%.
With `O=C1c2c(O)ccc([N+](=O)[O-])c2C(=O)c2c([N+](=O)[O-])ccc(O)c21`, the cell viability was found to be 79.6%.
For `COc1ccc(S(=O)(=O)N2Cc3ccccc3CC2C(=O)Nc2ccc(C)cc2)cc1OC` (stereo not given) the value was 96.3%; for `Cc1cc2c(C(C)C)c(O)c(O)c(C=NCCOc3ccc(C4CCCCC4)cc3)c2c(O)c1-c1c(C)cc2c(C(C)C)c(O)c(O)c(C=NCCOc3ccc(C4CCCCC4)cc3)c2c1O`, 98.1%.
Turning to `COc1cc(C2CC(=O)Nc3c2ccc2ccccc32)cc(OC)c1OC` (stereo not given), the cell viability came out at 50.5%.
For `Cc1ccc(-n2c(SCc3ccccc3F)nc3c(=O)[nH]cnc32)cc1`, the cell viability is 95.2%.
Consider `N[C@H](CC1CCCCC1)C(=O)O`, for which the cell viability stood at 95%.
On to `COc1ccc(C2C3=C(CC(C)CC3=O)Nc3ccccc3N2C(C)=O)cc1` (stereo not given), for which the cell viability was determined as 99.7%.
For `COc1cc(C(=O)O)ccc1O` the value was 94.3%; for `Cc1cc(=O)oc2c1ccc1occ(Nc3cccc([N+](=O)[O-])c3)c12`, 105%; for `CCCc1[nH]nc2c1C(c1ccc(OC)c(O)c1)C(C#N)=C(N)O2` (stereo not given), 100%.
`COC(=O)C(N)c1ccccc1` (stereo not given): the cell viability came out at 90.7%.
As for `Cc1ccc(-n2c(SCc3nc(-c4cccs4)oc3C)nc3c(=O)[nH]cnc32)cc1`, the figure is 93.2%.
For `CCN(CC)C(=O)c1cc(=O)n(CC(=O)Nc2ccc3c(c2)OCO3)c2ccccc12` the value was 103%; for `COc1cc(C2C(C(=O)OC(C)C)=C(C)NC3=C2C(=O)CCC3)cc(Br)c1O` (stereo not given), 113%.
For `COc1cc(CCC(=O)O)ccc1O`, the cell viability stood at 98%.
Turning to `COC(=O)CN1C(=O)C2(C(C#N)=C(N)Oc3c2c(=O)oc2ccccc32)c2ccccc21` (stereo not given), the cell viability turned out to be 102%.
`CCOc1ccc(C2NCCc3c2[nH]c2ccccc32)cc1` (stereo not given): the cell viability turned out to be 92.7%.
For the compound `CCCCOc1ccc(C2=NOC(=O)/C2=C\c2ccc(OCC)cc2O)cc1`, the cell viability worked out at 104%.
With `COC(=O)c1cc(OC)c(OC)c(OC)c1NS(=O)(=O)c1ccc2oc3ccccc3c2c1`, the cell viability came out at 102%.
Consider `COc1cc(C2NC(C(=O)O)Cc3c2[nH]c2ccccc32)cc(OC)c1OC` (stereo not given), for which the cell viability was 92.2%.
As for `COCCN1C(=O)/C(=C\c2cc(OC)c(OC)c(OC)c2)C(C(=O)OC)=C1C`, the cell viability was 101%.
With `COC(=O)C1=CN(Cc2ccccc2)C=C(C(=O)OC)C1c1cc(OC)c(OC)c(OC)c1`, the cell viability worked out at 92.4%.
With `CCOc1ccc(C(=O)NC(CC(=O)O)c2ccc(Cl)cc2)cc1OCC` (stereo not given), the cell viability is 100%.
As for `CCn1c(SCc2nc(-c3ccccc3C)oc2C)nc2c(=O)[nH]cnc21`, the figure is 95.1%; as for `COc1ccc(CN)cc1O`, 107%.
Take `Cc1cc2c(c(O)c1-c1c(C)cc3c(c1O)/C(=C/Nc1ccc(N=Nc4ccccc4)cc1)C(=O)C(O)=C3C(C)C)/C(=C/Nc1ccc(N=Nc3ccccc3)cc1)C(=O)C(O)=C2C(C)C`: the cell viability was 106%.
Regarding `CCn1c(SCC(=O)Nc2ccc(F)c(Cl)c2)nc2c(=O)[nH]cnc21`, the cell viability stood at 104%.
As for `Cc1ccc(C(=O)COc2cc(OCC(=O)c3ccc(C)cc3)c3c(C)cc(=O)oc3c2)cc1`, the cell viability was 96.6%.
Turning to `O=C(Cn1c(=O)cc(C(=O)NCc2ccccc2)c2ccccc21)Nc1ccc(F)cc1`, the cell viability turned out to be 97.9%.
Take `Cc1c(CC(=O)NCCc2ccccc2)c(=O)oc2cc(O)ccc12`: the cell viability was 98.8%.
`O=C(CCNc1ccc(Oc2ccc(Cl)cc2)cc1)c1ccc2c(c1)OCO2`: the cell viability amounted to 96.8%.
On to `CCCc1cc(=O)[nH]c(SCC(=O)Nc2c(-c3ccccc3)nc3ccccn23)n1`, for which the cell viability turned out to be 101%.
Consider `Cc1cc2c(c(O)c1-c1c(C)cc3c(c1O)/C(=C/Nc1ccccc1O)C(=O)C(O)=C3C(C)C)/C(=C/Nc1ccccc1O)C(=O)C(O)=C2C(C)C`, for which the cell viability is 107%.
For `O=C(/C=C/c1ccc(O)cc1)c1cc(O)ccc1O` the value was 108%.
Regarding `O=C(NCc1ccc2c(c1)OCO2)C12CC3CC(C1)CC(n1cncn1)(C3)C2`, the cell viability was 90.3%.
For `COc1cc2ccc(=O)oc2c(OC2OC(CO)C(O)C(O)C2O)c1O` (stereo not given) the value was 116%.
`COc1ccc(C(=O)n2nc(C)cc2C)cc1OC`: the cell viability turned out to be 89.9%.
Regarding `COC(=O)c1ccccc1NC(=O)CSc1nc2c(=O)[nH]cnc2n1-c1ccccc1`, the cell viability came to 86.4%.
Turning to `COc1ccc(/C=C2\Oc3cc(OCC(N)=O)ccc3C2=O)cc1OC`, the cell viability turned out to be 95.8%.
Consider `Cc1[nH]c2ccccc2c1CCNC(=O)NC(=O)c1cccc(Cl)c1`, for which the cell viability turned out to be 96.5%.
With `CCc1ccc(C2C(C#N)=C(N)Oc3cc(O)ccc32)cc1` (stereo not given), the cell viability came out at 110%.
As for `COc1cccc(NC(=O)Cn2c(=O)cc(C(=O)N3CCCC3)c3ccccc32)c1`, the figure is 102%.

A word on the cell viability: it is a read-out of living cells in per cent, often relative to untreated cells.
